No constants are given. Whether binding was seen depends on the method and setting. In cells and extracts the contact can be indirect. A yes stands for co-enrichment or nearness to the bait. Other partners may have been found.
B1: Kcc2 (protein, UniProt Q91V14 1-1138)
chain: MSRRFTVTSLPPAASAASADPESRRHSVADPRRLPREDVKGDGNPKESSPFINSTDTEKGREYDGRNMALFEEEMDTSPMVSSLLSGLANYTNLPQGSREHEEAENNEGGKKKPVQAPRMGTFMGVYLPCLQNIFGVILFLRLTWVVGIAGIMESFCMVFICCSCTMLTAISMSAIATNGVVPAGGSYYMISRSLGPEFGGAVGLCFYLGTTFAGAMYILGTIEILLAYLFPAMAIFKAEDASGEAAAMLNNMRVYGTCVLTCMATVVFVGVKYVNKFALVFLGCVILSILAIYAGVIKSAFDPPNFPICLLGNRTLSRHGFDVCAKLAWEGNETVTTRLWGLFCSSRLLNATCDEYFTRNNVTEIQGIPGAASGLIKENLWSSYLTKGVIVERRGMPSVGLADGTPVDMDHPYVFSDMTSYFTLLVGIYFPSVTGIMAGSNRSGDLRDAQKSIPTGTILAIATTSAVYISSVVLFGACIEGVVLRDKFGEAVNGNLVVGTLAWPSPWVIVIGSFFSTCGAGLQSLTGAPRLLQAISRDGIVPFLQVFGHGKANGEPTWALLLTACICEIGILIASLDEVAPILSMFFLMCYMFVNLACAVQTLLRTPNWRPRFRYYHWTLSFLGMSLCLALMFICSWYYALVAMLIAGLIYKYIEYRGAEKEWGDGIRGLSLSAARYALLRLEEGPPHTKNWRPQLLVLVRVDQDQNVVHPQLLSLTSQLKAGKGLTIVGSVLEGTFLDNHPQAQRAEESIRRLMEAEKVKGFCQVVISSNLRDGVSHLIQSGGLGGLQHNTVLVGWPRNWRQKEDHQTWRNFIELVRETTAGHLALLVTKNVSMFPGNPERFSEGSIDVWWIVHDGGMLMLLPFLLRHHKVWRKCKMRIFTVAQMDDNSIQMKKDLTTFLYHLRITAEVEVVEMHESDISAYTYEKTLVMEQRSQILKQMHLTKNEREREIQSITDESRGSIRRKNPANPRLRLNVPEETACDNEEKPEEEVQLIHDQSAPSCPSSSPSPGEEPEGERETDPEVHLTWTKDKSVAEKNKGPSPVSSEGIKDFFSMKPEWENLNQSNVRRMHTAVRLNEVIVNKSRDAKLVLLNMPGPPRNRNGDENYMEFLEVLTEQLDRVMLVRGGGREVITIYS
B2: Cadm3 (protein, UniProt Q99N28 23-396)
chain: NLSQDDSQPWTSDETVVAGGTVVLKCQVKDHEDSSLQWSNPAQQTLYFGEKRALRDNRIQLVSSTPHELSISISNVALADEGEYTCSIFTMPVRTAKSLVTVLGIPQKPIITGYKSSLREKETATLNCQSSGSKPAAQLTWRKGDQELHGDQTRIQEDPNGKTFTVSSSVSFQVTREDDGANIVCSVNHESLKGADRSTSQRIEVLYTPTAMIRPEPAHPREGQKLLLHCEGRGNPVPQQYVWVKEGSEPPLKMTQESALIFPFLNKSDSGTYGCTATSNMGSYTAYFTLNVNDPSPVPSSSSTYHAIIGGIVAFIVFLLLILLIFLGHYLIRHKGTYLTHEAKGSDDAPDADTAIINAEGGQSGGDDKKEYFI
B3: Cntn1 (protein, UniProt P12960 21-1001)
chain: DFTWHRRYGHGVSEEDKGFGPIFEEQPINTIYPEESLEGKVSLNCRARASPFPVYKWRMNNGDVDLTNDRYSMVGGNLVINNPDKQKDAGVYYCLASNNYGMVRSTEATLSFGYLDPFPPEERPEVKVKEGKGMVLLCDPPYHFPDDLSYRWLLNEFPVFITMDKRRFVSQTNGNLYIANVESSDRGNYSCFVSSPSITKSVFSKFIPLIPIPERTTKPYPADIVVQFKDIYTMMGQNVTLECFALGNPVPDIRWRKVLEPMPSTAEISTSGAVLKIFNIQLEDEGLYECEAENIRGKDKHQARIYVQAFPEWVEHINDTEVDIGSDLYWPCIATGKPIPTIRWLKNGYSYHKGELRLYDVTFENAGMYQCIAENAYGSIYANAELKILALAPTFEMNPMKKKILAAKGGRVIIECKPKAAPKPKFSWSKGTEWLVNSSRILIWEDGSLEINNITRNDGGIYTCFAENNRGKANSTGTLVITNPTRIILAPINADITVGENATMQCAASFDPALDLTFVWSFNGYVIDFNKEITHIHYQRNFMLDANGELLIRNAQLKHAGRYTCTAQTIVDNSSASADLVVRGPPGPPGGLRIEDIRATSVALTWSRGSDNHSPISKYTIQTKTILSDDWKDAKTDPPIIEGNMESAKAVDLIPWMEYEFRVVATNTLGTGEPSIPSNRIKTDGAAPNVAPSDVGGGGGTNRELTITWAPLSREYHYGNNFGYIVAFKPFDGEEWKKVTVTNPDTGRYVHKDETMTPSTAFQVKVKAFNNKGDGPYSLVAVINSAQDAPSEAPTEVGVKVLSSSEISVHWKHVLEKIVESYQIRYWAGHDKEAAAHRVQVTSQEYSARLENLLPDTQYFIEVGACNSAGCGPSSDVIETFTRKAPPSQPPRIISSVRSGSRYIITWDHVVALSNESTVTGYKILYRPDGQHDGKLFSTHKHSIEVPIPRDGEYVVEVRAHSDGGDGVVSQVKISGVSTLS
B4: Ncam2 (protein, UniProt O35136 20-837)
chain: LLQVTISLSKVELSVGESKFFTCTAIGEPESIDWYNPQGEKIISTQRVMLQKEGVRSRLTIYNANIEDAGIYRCQATDAKGQTQEATVVLEIYQKLTFREVVSPQEFKQGEDAEVVCRVSSSPAPAVSWLYHNEEVTTIPDNRFAVLANNNLQILNINKSDEGIYRCEGRVEARGEIDFRDIIVIVNVPPAIMMPQKSFNATAERGEEMTLTCKASGSPDPTISWFRNGKLIEENEKYILKGSNTELTVRNIINKDGGSYVCKATNKAGEDQKQAFLQVFVQPHILQLKNETTSENGHVTLVCEAEGEPVPEITWKRAIDGVMFSEGDKSPDGRIEVKGQHGRSSLHIRDVKLSDSGRYDCEAASRIGGHQRSMHLDIEYAPKFVSNQTMYYSWEGNPINISCDVTANPPASIHWRREKLLLPAKNTTHLKTHSVGRKMILEIAPTSDNDFGRYNCTATNRIGTRFQEYILELADVPSSPHGVKIIELSQTTAKISFNKPESHGGVPIHHYQVDVKEVASETWKIVRSHGVQTMVVLSSLEPNTTYEIRVAAVNGKGQGDYSKIEIFQTLPVREPSPPSIHGQPSSGKSFKISITKQDDGGAPILEYIVKYRSKDKEDQWLEKKVQGNKDHIILEHLQWTMGYEVQITAANRLGYSEPTVYEFSMPPKPNIIKDTLFNGLGLGAIIGLGVAALLLILVVTDVSCFFIRQCGLLMCITRRMCGKKSGSSGKSKELEEGKAAYLKDGSKEPIVEMRTEDERITNHEDGSPVNEPNETTPLTEPEKLPLKEENGKEVLNAETIEIKVSNDIIQSKEDDIKA
B5: Cadherin-13 (protein, UniProt Q9WTR5 139-693)
chain: SIVVSPILIPENQRQPFPRDVGKVVDSDRPEGSKFRLTGKGVDQDPKGTFRINENTGSVSVTRTLDRETIATYQLYVETTDASGKTLEGPVPLEVIVIDQNDNRPIFREGPYIGHVMEGSPTGTTVMRMTAFDADDPATDNALLRYNIRQQTPDKPSPNMFYIDPEKGDIVTVVSPALLDRETLENPKYELIIEAQDMAGLDVGLTGTATATIVIDDKNDHSPKFTKKEFQATVEEGAVGVIVNLTVEDKDDPTTGAWRAAYTIINGNPGQSFEIHTNPQTNEGMLSVVKPLDYEISAFHTLLIKVENEDPLVPDVSYGPSSTATVHITVLDVNEGPVFYPDPMMVTKQENISVGSVLLTVNATDPDSLQHQTIRYSIYKDPAGWLSINPINGTVDTTAVLDRESPFVHNSVYTALFLAIDSGNPPATGTGTLLITLEDINDNAPVIYPTVAEVCDDARNLSVVILGASDKDLHPNTDPFKFEIHKQTVPDKVWKISKINNTHALVSLLQNLNKANYNLPIMVTDSGKPPMTNITDLRVQVCSCKNSKVDCNGAG
B6: Igsf8 (protein, UniProt Q8R366 26-611)
chain: RQVHVPRGPLYRVAGTAVSISCNVSDYEGPAQQDFEWFMYRPEAPATSLGIVSTKDSQFSYAVFGPRVASGDLQVQRLKGDSVVLKIARLQAQDSGFYECYTPSTDTQYLGNYSAKVELRVLPDELQVSAAPPGPRGRQAATSPSRLTVHEGQELALGCLAQTKTKKHTHLSVSFGRAIPEAPVGRATLQEVVGLRSDMAVEAGAPYAERLASGELRLSKEGTDRYRMVVGGAQAGDSGTYHCTAAEWIQDPDGSWVQVAEKRAVLAHVDVQTLSSQLAVTVGPGERRIGPGEPLELLCNVSGALPPPGRHAAYSVGWEMAPAGAPGPGRLVAQLDTEGIGSLGPGYEDRHIAMEKVASRTYRLRLEAARPADAGTYRCLAKAYVRGSGTRLREAASARSRPLPVHVREEGVVLEAVAWLAGGTVYRGETASLLCNISVRGGPPGLRLAASWWVERPEEGELSSGPAQLVGGVGQDGVAELGVRPGGGPVSVELVGPRSHRLRLHGLGPEDEGIYHCAPSAWVQHADYSWYQAGSARSGPVTVYPYTHAVDTLFVPLLVGTGVALVTGASVLATITCCFMKRMRKR

By UniProt entry, the sequences of proteins in these tests, tags left out. Where a name states a change or a piece, a line headed by the entry shows the natural chain unless it says otherwise. Residues count along the entry.
UniProt O08532, residues 25-1073: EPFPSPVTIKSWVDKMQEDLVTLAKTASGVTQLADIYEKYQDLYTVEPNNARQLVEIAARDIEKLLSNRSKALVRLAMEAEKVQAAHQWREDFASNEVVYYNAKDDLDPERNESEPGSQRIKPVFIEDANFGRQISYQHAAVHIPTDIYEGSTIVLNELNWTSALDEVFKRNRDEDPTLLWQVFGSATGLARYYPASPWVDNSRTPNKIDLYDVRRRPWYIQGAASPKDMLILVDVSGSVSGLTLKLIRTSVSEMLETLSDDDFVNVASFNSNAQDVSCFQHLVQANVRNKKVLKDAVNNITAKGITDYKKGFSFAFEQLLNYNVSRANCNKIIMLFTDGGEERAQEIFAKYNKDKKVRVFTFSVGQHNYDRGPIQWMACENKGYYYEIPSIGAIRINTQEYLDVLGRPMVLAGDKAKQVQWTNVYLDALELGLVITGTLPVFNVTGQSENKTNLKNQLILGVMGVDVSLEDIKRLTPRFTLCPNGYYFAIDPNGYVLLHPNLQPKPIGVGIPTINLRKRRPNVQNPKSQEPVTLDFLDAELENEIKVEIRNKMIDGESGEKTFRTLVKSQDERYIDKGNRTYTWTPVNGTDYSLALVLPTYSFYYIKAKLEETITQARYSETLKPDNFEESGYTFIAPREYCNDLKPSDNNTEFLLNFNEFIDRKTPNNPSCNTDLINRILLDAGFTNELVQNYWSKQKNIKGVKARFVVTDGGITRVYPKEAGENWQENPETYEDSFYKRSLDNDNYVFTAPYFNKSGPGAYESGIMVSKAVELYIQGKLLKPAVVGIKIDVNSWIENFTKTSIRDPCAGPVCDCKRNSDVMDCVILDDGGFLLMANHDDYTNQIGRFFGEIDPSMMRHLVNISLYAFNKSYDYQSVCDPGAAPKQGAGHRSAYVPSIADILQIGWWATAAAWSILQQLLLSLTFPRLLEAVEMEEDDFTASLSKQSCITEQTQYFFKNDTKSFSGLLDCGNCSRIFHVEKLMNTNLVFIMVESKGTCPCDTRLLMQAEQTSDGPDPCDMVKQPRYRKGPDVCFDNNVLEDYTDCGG
UniProt Q9R0K7: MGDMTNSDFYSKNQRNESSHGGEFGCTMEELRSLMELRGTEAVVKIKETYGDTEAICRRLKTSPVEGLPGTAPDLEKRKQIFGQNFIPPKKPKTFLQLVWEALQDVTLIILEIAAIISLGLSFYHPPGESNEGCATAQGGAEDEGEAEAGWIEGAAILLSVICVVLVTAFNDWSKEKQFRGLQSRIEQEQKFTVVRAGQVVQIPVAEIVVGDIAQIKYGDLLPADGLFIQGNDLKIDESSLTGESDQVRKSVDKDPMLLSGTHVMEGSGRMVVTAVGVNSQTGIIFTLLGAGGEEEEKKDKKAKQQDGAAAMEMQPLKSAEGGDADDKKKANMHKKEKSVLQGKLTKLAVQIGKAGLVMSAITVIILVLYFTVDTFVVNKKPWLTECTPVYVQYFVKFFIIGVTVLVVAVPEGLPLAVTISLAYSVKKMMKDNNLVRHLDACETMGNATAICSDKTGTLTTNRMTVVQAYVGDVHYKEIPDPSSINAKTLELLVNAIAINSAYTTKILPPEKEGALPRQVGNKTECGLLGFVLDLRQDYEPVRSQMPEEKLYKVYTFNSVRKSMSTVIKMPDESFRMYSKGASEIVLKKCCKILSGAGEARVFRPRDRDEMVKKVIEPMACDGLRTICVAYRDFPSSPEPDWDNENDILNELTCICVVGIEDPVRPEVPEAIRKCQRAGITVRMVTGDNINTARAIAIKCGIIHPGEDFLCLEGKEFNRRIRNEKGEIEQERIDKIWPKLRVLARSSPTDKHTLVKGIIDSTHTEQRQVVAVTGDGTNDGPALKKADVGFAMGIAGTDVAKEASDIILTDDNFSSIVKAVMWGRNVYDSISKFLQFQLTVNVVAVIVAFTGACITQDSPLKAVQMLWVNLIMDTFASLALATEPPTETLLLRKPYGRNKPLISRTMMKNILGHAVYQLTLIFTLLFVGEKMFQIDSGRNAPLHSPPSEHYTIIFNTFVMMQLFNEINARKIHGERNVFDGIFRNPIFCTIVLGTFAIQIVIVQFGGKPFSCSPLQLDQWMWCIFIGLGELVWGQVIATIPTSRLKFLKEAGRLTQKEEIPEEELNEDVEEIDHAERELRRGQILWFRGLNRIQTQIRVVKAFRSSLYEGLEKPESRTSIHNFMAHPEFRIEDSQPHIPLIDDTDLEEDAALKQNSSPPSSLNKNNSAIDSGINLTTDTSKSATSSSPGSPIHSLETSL
UniProt P11627, residues 20-1260: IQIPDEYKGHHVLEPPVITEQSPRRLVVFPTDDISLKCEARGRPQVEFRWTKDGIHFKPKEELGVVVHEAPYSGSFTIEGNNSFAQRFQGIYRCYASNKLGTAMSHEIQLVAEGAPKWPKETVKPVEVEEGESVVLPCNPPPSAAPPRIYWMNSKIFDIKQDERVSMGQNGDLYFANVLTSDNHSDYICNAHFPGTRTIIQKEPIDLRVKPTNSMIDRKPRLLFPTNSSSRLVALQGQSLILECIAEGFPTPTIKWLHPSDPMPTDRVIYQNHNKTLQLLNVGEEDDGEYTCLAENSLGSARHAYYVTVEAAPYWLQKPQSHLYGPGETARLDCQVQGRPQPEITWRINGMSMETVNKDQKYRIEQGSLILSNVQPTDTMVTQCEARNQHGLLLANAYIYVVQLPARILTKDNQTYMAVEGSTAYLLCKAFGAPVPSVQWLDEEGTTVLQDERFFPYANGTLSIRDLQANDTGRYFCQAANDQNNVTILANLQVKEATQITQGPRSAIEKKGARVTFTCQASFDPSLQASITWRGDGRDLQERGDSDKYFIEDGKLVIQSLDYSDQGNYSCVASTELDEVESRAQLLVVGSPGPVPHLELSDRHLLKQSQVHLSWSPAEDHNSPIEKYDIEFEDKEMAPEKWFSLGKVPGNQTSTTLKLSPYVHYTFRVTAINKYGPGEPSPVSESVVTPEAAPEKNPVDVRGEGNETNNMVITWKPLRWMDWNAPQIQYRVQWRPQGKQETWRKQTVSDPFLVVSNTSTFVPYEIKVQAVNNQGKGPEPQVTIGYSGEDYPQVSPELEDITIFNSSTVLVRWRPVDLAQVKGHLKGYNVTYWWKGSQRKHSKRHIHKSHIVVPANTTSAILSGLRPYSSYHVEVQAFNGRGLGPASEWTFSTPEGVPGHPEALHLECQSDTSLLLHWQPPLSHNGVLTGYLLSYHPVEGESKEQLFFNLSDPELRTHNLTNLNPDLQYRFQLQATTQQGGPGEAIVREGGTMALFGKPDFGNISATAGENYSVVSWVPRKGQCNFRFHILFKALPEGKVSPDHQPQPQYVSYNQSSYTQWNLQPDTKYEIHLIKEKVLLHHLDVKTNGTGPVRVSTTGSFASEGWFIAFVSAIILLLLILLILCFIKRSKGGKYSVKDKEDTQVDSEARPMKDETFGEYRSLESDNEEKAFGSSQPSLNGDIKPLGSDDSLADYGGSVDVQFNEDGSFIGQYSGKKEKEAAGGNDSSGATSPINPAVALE

Target: SEAD1 (Synthetic Ectodomain of Alpha2Delta-1), recombinant mouse soluble α2δ-1 (mouse) (UniProt O08532)
Experiment: affinity purification with mass spectrometry

Row | Molecule | binding
1 | Atp2b2 (from UniProt Q9R0K7 1-1198) | binds
2 | L1Cam (from UniProt P11627 20-1260) | binds
3 | B1 | binds
4 | B2 | binds
5 | B3 | binds
6 | B4 | binds
7 | B5 | binds
8 | B6 | binds

Reference: paper doi:10.1101/2024.12.26.629959
